Laboratory results reported in paper PMC6761100.

Assays:
[1] = target: T1, WHITE COLLAR 2 (WC-2) (Neurospora (endogenous in Neurospora extracts)) (UniProt P78714); assay: co-IP; WC-2 antibody and GammaBind G Sepharose beads, 2 mg Neurospora extract (50 mM HEPES pH 7.4, 137 mM NaCl, 10% glycerol); WC-2 precipitated, FRQ detected by Western blot; cultures in LL, for the wild type also at time points in DD
T1 sequence: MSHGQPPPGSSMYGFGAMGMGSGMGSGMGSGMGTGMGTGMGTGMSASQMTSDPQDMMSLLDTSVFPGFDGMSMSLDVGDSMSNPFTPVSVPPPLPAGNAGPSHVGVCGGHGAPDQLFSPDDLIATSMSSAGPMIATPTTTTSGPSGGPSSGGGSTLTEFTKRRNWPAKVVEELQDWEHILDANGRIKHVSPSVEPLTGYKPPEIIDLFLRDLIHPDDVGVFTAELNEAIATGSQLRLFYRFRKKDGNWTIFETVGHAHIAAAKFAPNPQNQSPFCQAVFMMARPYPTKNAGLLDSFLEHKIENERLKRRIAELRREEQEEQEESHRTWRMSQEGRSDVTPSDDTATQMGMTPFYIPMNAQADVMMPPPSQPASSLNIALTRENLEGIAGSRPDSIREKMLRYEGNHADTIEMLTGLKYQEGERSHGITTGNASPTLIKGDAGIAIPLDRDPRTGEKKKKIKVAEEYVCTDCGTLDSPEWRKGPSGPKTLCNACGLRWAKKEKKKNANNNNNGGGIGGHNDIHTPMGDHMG

[2] = target: CK1a (casein kinase 1a), endogenous (Neurospora (endogenous in Neurospora extracts)); assay: co-IP; CK1a antibody (endogenous CK1a) and GammaBind G Sepharose beads, 2 mg Neurospora extract (50 mM HEPES pH 7.4, 137 mM NaCl, 10% glycerol); FRQ detected by Western blot; cultures in LL
[3] = target: Myc.His.CK1a (Neurospora); assay: co-IP; c-Myc antibody and GammaBind G Sepharose beads, 2 mg extract of Neurospora strains that express Myc.His.CK1a; FRQ detected by Western blot; cultures in LL; for the wild type also DD time points, 1 h CHX treatment and the ckb^RIP background

| Molecule | binding [1] | binding [2] | binding [3] |
| --- | --- | --- | --- |
| FRQ M10 (phosphorylation site mutant) (from UniProt P19970) | binds |  |  |
| FRQ M9 (phosphorylation site mutant) (from UniProt P19970) | binds |  |  |
| FREQUENCY (FRQ), wild type (protein, UniProt P19970 1-989) MADSGDKSQGMRPPPFDSRGHPLPRRASPDKSITLENHRLARDTSSRVTSSSALGVTESQPQLKSSPTRRNSSGESEPTNWFNQSNRNPAAAFHDESHIMEVDPPFYQKETDSSNEESRYPPGRNPVHPPGGVQLPGFRPVAAHSSAADDYRSVIDDLTVENKRLKEELKRYKQFGSDVMRKEKLFEIKVHGLPRRKKRELEATLRDFAASLGDSSESTSQRRKTGRHGTAVHSSGVSLSKHDSSSSSRSRPVDSAYNSMSTGRSSHAPHSSGPSLGRPSLTRAKSVGTQKVENYLRDTPDGLLPHHIVMTDKEKKKLVVRRLEQLFTGKISGRNMQRNQSMPSMDAPLAPEGTNMAPPRPPPEGLREACIQLQDGDNPRKNRSSKDNGSASNSGGDQTELGGTGTGSGDGSGSGGRTGNNTSPPGAIAPDQRPTRPRDLDPDRVQIPSENMDYIRHLGLVSPEFLQGSRTSYQDVAPDAEGWVYLNLLCNLAQLHMVNVTPSFIRQAVSEKSTKFQLSADGRKIRWRGGTDGTKFSSDSSEDKSQQSPMTEDTEDGSDKNGRRKKRKTQQASSEIGRFGPSRSPSDTFHYKPMFVHRNSSSIETSLEESMSQGSEDAVDESNMGNSKWDFSGSGTTQQRRKRRYDGAIVYYTGAPFCTDLSGDPGDMSPTAQMTAGREVEGSGSGDEVEHVLQRTLSGSSLPIRPLSDDRARVAEVLDFDPGNPPELVADDGSSPNDEDFVFPWCEDPAKVRIQPIAKEVMEPSGLGGVLPDDHFVMLVTTRRVVRPILQRQLSRSTTSEDTAEFIAERLAAIRTSSPLPPRSHRLTVAPLQVEYVSGQFRRLNPAPLPPPAIFYPPFSTDSSWDDGDDLASDDEEVEEVEEDSYSEGQISRRANPHFSDNNTYMRKDDLAFDTETDVRMDSDDNRLSDSGHNMRAMMPRAEAVDGDDSPLAAVTGKEVDMLHTGSSVATAGGAESGYSSSMEDVSSS |  | binds | binds |
| FRQ S513R (protein, UniProt P19970 1-989) MADSGDKSQGMRPPPFDSRGHPLPRRASPDKSITLENHRLARDTSSRVTSSSALGVTESQPQLKSSPTRRNSSGESEPTNWFNQSNRNPAAAFHDESHIMEVDPPFYQKETDSSNEESRYPPGRNPVHPPGGVQLPGFRPVAAHSSAADDYRSVIDDLTVENKRLKEELKRYKQFGSDVMRKEKLFEIKVHGLPRRKKRELEATLRDFAASLGDSSESTSQRRKTGRHGTAVHSSGVSLSKHDSSSSSRSRPVDSAYNSMSTGRSSHAPHSSGPSLGRPSLTRAKSVGTQKVENYLRDTPDGLLPHHIVMTDKEKKKLVVRRLEQLFTGKISGRNMQRNQSMPSMDAPLAPEGTNMAPPRPPPEGLREACIQLQDGDNPRKNRSSKDNGSASNSGGDQTELGGTGTGSGDGSGSGGRTGNNTSPPGAIAPDQRPTRPRDLDPDRVQIPSENMDYIRHLGLVSPEFLQGSRTSYQDVAPDAEGWVYLNLLCNLAQLHMVNVTPSFIRQAVSEKRTKFQLSADGRKIRWRGGTDGTKFSSDSSEDKSQQSPMTEDTEDGSDKNGRRKKRKTQQASSEIGRFGPSRSPSDTFHYKPMFVHRNSSSIETSLEESMSQGSEDAVDESNMGNSKWDFSGSGTTQQRRKRRYDGAIVYYTGAPFCTDLSGDPGDMSPTAQMTAGREVEGSGSGDEVEHVLQRTLSGSSLPIRPLSDDRARVAEVLDFDPGNPPELVADDGSSPNDEDFVFPWCEDPAKVRIQPIAKEVMEPSGLGGVLPDDHFVMLVTTRRVVRPILQRQLSRSTTSEDTAEFIAERLAAIRTSSPLPPRSHRLTVAPLQVEYVSGQFRRLNPAPLPPPAIFYPPFSTDSSWDDGDDLASDDEEVEEVEEDSYSEGQISRRANPHFSDNNTYMRKDDLAFDTETDVRMDSDDNRLSDSGHNMRAMMPRAEAVDGDDSPLAAVTGKEVDMLHTGSSVATAGGAESGYSSSMEDVSSS |  |  | binds |
| FRQ S519A (protein, UniProt P19970 1-989) MADSGDKSQGMRPPPFDSRGHPLPRRASPDKSITLENHRLARDTSSRVTSSSALGVTESQPQLKSSPTRRNSSGESEPTNWFNQSNRNPAAAFHDESHIMEVDPPFYQKETDSSNEESRYPPGRNPVHPPGGVQLPGFRPVAAHSSAADDYRSVIDDLTVENKRLKEELKRYKQFGSDVMRKEKLFEIKVHGLPRRKKRELEATLRDFAASLGDSSESTSQRRKTGRHGTAVHSSGVSLSKHDSSSSSRSRPVDSAYNSMSTGRSSHAPHSSGPSLGRPSLTRAKSVGTQKVENYLRDTPDGLLPHHIVMTDKEKKKLVVRRLEQLFTGKISGRNMQRNQSMPSMDAPLAPEGTNMAPPRPPPEGLREACIQLQDGDNPRKNRSSKDNGSASNSGGDQTELGGTGTGSGDGSGSGGRTGNNTSPPGAIAPDQRPTRPRDLDPDRVQIPSENMDYIRHLGLVSPEFLQGSRTSYQDVAPDAEGWVYLNLLCNLAQLHMVNVTPSFIRQAVSEKSTKFQLAADGRKIRWRGGTDGTKFSSDSSEDKSQQSPMTEDTEDGSDKNGRRKKRKTQQASSEIGRFGPSRSPSDTFHYKPMFVHRNSSSIETSLEESMSQGSEDAVDESNMGNSKWDFSGSGTTQQRRKRRYDGAIVYYTGAPFCTDLSGDPGDMSPTAQMTAGREVEGSGSGDEVEHVLQRTLSGSSLPIRPLSDDRARVAEVLDFDPGNPPELVADDGSSPNDEDFVFPWCEDPAKVRIQPIAKEVMEPSGLGGVLPDDHFVMLVTTRRVVRPILQRQLSRSTTSEDTAEFIAERLAAIRTSSPLPPRSHRLTVAPLQVEYVSGQFRRLNPAPLPPPAIFYPPFSTDSSWDDGDDLASDDEEVEEVEEDSYSEGQISRRANPHFSDNNTYMRKDDLAFDTETDVRMDSDDNRLSDSGHNMRAMMPRAEAVDGDDSPLAAVTGKEVDMLHTGSSVATAGGAESGYSSSMEDVSSS |  |  | binds |

These are yes or no findings as the source states them, for the method shown. Binding seen in cells or lysates may run through a third protein. Binding calls can cover weak binding; strength is not graded here.
